Source: PubChem BioAssay AID248 (DTP/NCI, 2004)
The list does not hold the whole screen: it gathers tests that were run many times, whatever their T/C, doses with no T/C, and many T/C values between a quarter and a half above the control. Other doses and runs of a compound stand elsewhere. T/C: endpoint of the treated group in % of that of the vehicle group. Some entries give survivors of the animals treated and no T/C: the source files T/C as zero there, which appears to mark a toxic dose or a test without result, not a measured value. Some survivor counts are full or nearly so, which does not show that the dose was tolerated: the source hardly ever lists a survival T/C far under the control, and the zero likely stands for such cases as well. Survivors were counted at the toxicity check, usually on the fifth day, unless a day is given; later deaths do not show. Schedule codes are those of the source, read here as Q, the interval in days (D) or hours (H), X, the number of doses. Some schedules carry Z or #; the key to these is not given. Where survival is the endpoint, this PubChem deposit counts one and a half times the control or more as active, and values a quarter to a half above the control carry no call in these data; other NCI protocols may use other cut-offs. Some T/C values carry the count of animals alive at the toxicity check (mostly the fifth day); where none is given, no animal had died by that day.

Test system: L1210 leukemia ip in BDF1 mice, survival T/C
Test: NCI In Vivo Anticancer Drug Screen. Data for tumor model L1210 Leukemia (intraperitoneal) in B6D2F1 (BDF1) mice
Settings: T/C endpoint: mean survival time, higher T/C = longer survival
[1] = dose: 400.0 mg/kg/injection, schedule: Q04DX003 (ip), vehicle: saline with Tween-80
[2] = dose: 150.0 mg/kg/injection, schedule: Q01DX001 (ip), vehicle: saline
[3] = dose: 300.0 mg/kg/injection, schedule: Q01DX001 (ip), vehicle: saline
[4] = dose: 100.0 mg/kg/injection, schedule: Q04DX003 (ip), vehicle: saline
[5] = dose: 400.0 mg/kg/injection, schedule: Q04DX003 (ip), vehicle: saline
[6] = dose: 25.0 mg/kg/injection, schedule: Q04DX003 (ip), vehicle: saline
[7] = dose: 400.0 mg/kg/injection, schedule: Q01DX001 (ip), vehicle: carboxymethylcellulose (CMC)
[8] = dose: 200.0 mg/kg/injection, schedule: Q04DX003 (ip), vehicle: saline with Tween-80
[9] = dose: 400.0 mg/kg/injection, schedule: Q01DX009 (ip), vehicle: saline with Tween-80

Structure (SMILES): Cc1c(C)c(Br)c(C)c(-c2c(O)c(Br)c(-c3c(C)c(C)c(C)c(Br)c3C)c(O)c2Br)c1C
- survivor count [1]: 6 of 6

Structure (SMILES): O=C(O)C(O)C(O)C(O)C(O)C(O)CO.[Cu+2] (configuration not stated)
- survivor count (dose: 60.0 mg/kg/injection, schedule: Q01DX001 (ip), vehicle: saline): 6 of 6
- survivor count (dose: 75.0 mg/kg/injection, schedule: Q01DX001 (ip), vehicle: saline): 0 of 6
- survivor count [2]: 0 of 6
- survivor count [3]: 0 of 6

Structure (SMILES): C[N+](C)(C)CCS(=O)(=O)c1ccc(Cl)cc1
- survivor count (dose: 200.0 mg/kg/injection, schedule: Q04DX002 (ip), vehicle: saline): 0 of 3
- survivor count (dose: 400.0 mg/kg/injection, schedule: Q04DX002 (ip), vehicle: saline): 0 of 3

Structure (SMILES): Cc1ccc(C2CC3c4ccccc4C2C2CCCCN32)cc1 (configuration not stated)
- survivor count [4]: 0 of 6
- survivor count (dose: 200.0 mg/kg/injection, schedule: Q04DX003 (ip), vehicle: saline): 0 of 6
- survivor count [5]: 0 of 6

Structure (SMILES): Cc1cc([NH-])c([NH-])cc1C.[Cl][Pt+2][Cl]
- T/C (dose: 8.2 mg/kg/injection, schedule: Q01DX009 (ip), vehicle: water): 141 % of control [5 of 6 alive]
- T/C (dose: 12.5 mg/kg/injection, schedule: Q01DX009 (ip), vehicle: other): 127 % of control
- T/C (dose: 12.5 mg/kg/injection, schedule: Q01DX009 (ip), vehicle: water): 128 % of control
- T/C (dose: 12.5 mg/kg/injection, schedule: Q04DX003 (ip), vehicle: other): 127 % of control
- T/C (dose: 25.0 mg/kg/injection, schedule: Q04DX003 (ip), vehicle: other): 132 % of control
- T/C [6]: 127 % of control
- survivor count (dose: 50.0 mg/kg/injection, schedule: Q01DX009 (ip), vehicle: other): 6 of 6
- survivor count (dose: 100.0 mg/kg/injection, schedule: Q01DX009 (ip), vehicle: other): 1 of 6
- survivor count (dose: 200.0 mg/kg/injection, schedule: Q04DX003 (ip), vehicle: other): 5 of 6
- survivor count [5]: 6 of 6

Structure (SMILES): NC1CON(C(c2ccccc2)(c2ccccc2)c2ccccc2)C1=O (configuration not stated)
- survivor count [7]: 2 of 4

Structure (SMILES): CC1CCC(N=S=O)CC1 (configuration not stated) (tested in a mixture with another compound)
- survivor count [8]: 3 of 6
- survivor count (dose: 400.0 mg/kg/injection, schedule: Q04DX002 (ip), vehicle: saline with Tween-80): 1 of 3
- survivor count [1]: 0 of 6

Structure (SMILES): CC1CCCC(C)N1CC(O)c1ccccc1 (configuration not stated)
- survivor count (dose: 100.0 mg/kg/injection, schedule: Q04DX003 (ip), vehicle: saline with Tween-80): 2 of 6
- survivor count [8]: 0 of 6
- survivor count [1]: 0 of 6

Structure (SMILES): S=C(NCc1ccco1)NCc1ccco1
- survivor count (dose: 350.0 mg/kg/injection, schedule: Q01DX Z (ip), vehicle: methylcellulose (MC)): 1 of 6

Structure (SMILES): CCCCCCCCCCCCCCCC[N+](C)=C(SC)c1ccccc1OC
- survivor count (dose: 6.0 mg/kg/injection, schedule: Q04DX003 (ip), vehicle: Klucel (hydroxypropylcellulose) (HPC)): 0 of 6
- survivor count (dose: 12.5 mg/kg/injection, schedule: Q04DX003 (ip), vehicle: Klucel (hydroxypropylcellulose) (HPC)): 0 of 6
- survivor count (dose: 25.0 mg/kg/injection, schedule: Q04DX003 (ip), vehicle: Klucel (hydroxypropylcellulose) (HPC)): 0 of 6
- survivor count (dose: 50.0 mg/kg/injection, schedule: Q04DX003 (ip), vehicle: Klucel (hydroxypropylcellulose) (HPC)): 1 of 6
- survivor count (dose: 100.0 mg/kg/injection, schedule: Q04DX003 (ip), vehicle: Klucel (hydroxypropylcellulose) (HPC)): 0 of 6
- survivor count (dose: 200.0 mg/kg/injection, schedule: Q04DX003 (ip), vehicle: Klucel (hydroxypropylcellulose) (HPC)): 0 of 6
- survivor count (dose: 400.0 mg/kg/injection, schedule: Q04DX003 (ip), vehicle: Klucel (hydroxypropylcellulose) (HPC)): 0 of 6

Structure (SMILES): CN(C)/C(=C\C(=O)c1ccccc1)c1ccccc1
- survivor count [8]: 3 of 3

Structure (SMILES): CC(=O)Nc1cc(F)c([N+](=O)[O-])cc1[N+](=O)[O-]
- survivor count (dose: 20.0 mg/kg/injection, schedule: Q01DX015 (ip), vehicle: carboxymethylcellulose (CMC)): 4 of 6
- survivor count [6]: 5 of 6
- survivor count (dose: 40.0 mg/kg/injection, schedule: Q01DX009 (ip), vehicle: saline with Tween-80): 2 of 6
- survivor count (dose: 50.0 mg/kg/injection, schedule: Q04DX003 (ip), vehicle: saline): 3 of 6
- survivor count [4]: 5 of 6
- survivor count (dose: 200.0 mg/kg/injection, schedule: Q01DX001 (ip), vehicle: saline): 2 of 4
- survivor count (dose: 400.0 mg/kg/injection, schedule: Q01DX001 (ip), vehicle: saline): 2 of 4

Structure (SMILES): CCCCCCOC(CN(C)C)C(Cl)(Cl)Cl (configuration not stated)
- survivor count [9]: 3 of 6

Structure (SMILES): O=c1cc(O)ccn1CCc1cccs1
- survivor count [9]: 2 of 6

Structure (SMILES): COc1c2c(c(OC)c3ccccc13)C(=O)c1ccccc1C2=O
- survivor count (dose: 400.0 mg/kg/injection, schedule: Q01DX005 (ip), vehicle: saline): 2 of 4

Structure (SMILES): C#CCC#Cc1ccccc1
- survivor count [9]: 2 of 6

Structure (SMILES): COc1cc(Cl)ccc1C
- survivor count [1]: 2 of 6

Structure (SMILES): N#[N+]c1nc[nH]c1C(N)=O
- survivor count (dose: 2.6 mg/kg/injection, schedule: Q01DX001 (ip), vehicle: steroid suspending solution): 0 of 8
- survivor count (dose: 3.8 mg/kg/injection, schedule: Q01DX001 (ip), vehicle: steroid suspending solution): 1 of 8
- survivor count (dose: 5.4 mg/kg/injection, schedule: Q01DX001 (ip), vehicle: steroid suspending solution): 0 of 8
- survivor count (dose: 5.4 mg/kg/injection, schedule: Q03HX008 (ip), vehicle: steroid suspending solution): 5 of 8
- survivor count (dose: 7.7 mg/kg/injection, schedule: Q01DX001 (ip), vehicle: steroid suspending solution): 1 of 8
- survivor count (dose: 11.1 mg/kg/injection, schedule: Q01DX001 (ip), vehicle: steroid suspending solution): 0 of 8
- survivor count (dose: 15.8 mg/kg/injection, schedule: Q01DX001 (ip), vehicle: steroid suspending solution): 0 of 8
- survivor count (dose: 22.6 mg/kg/injection, schedule: Q01DX001 (ip), vehicle: steroid suspending solution): 0 of 8
- survivor count (dose: 25.0 mg/kg/injection, schedule: Q01DX001 (ip), vehicle: steroid suspending solution): 1 of 8
- survivor count (dose: 50.0 mg/kg/injection, schedule: Q01DX001 (ip), vehicle: steroid suspending solution): 0 of 8

Structure (SMILES): C[S+]1Cc2ccccc2C1
- survivor count [1]: 0 of 6

Structure (SMILES): c1ccc2c(OCCN3CC3)nccc2c1
- survivor count [7]: 0 of 6

Structure (SMILES): c1ccc(C[P+](Cc2ccccc2)(c2ccccc2)c2ccccc2)cc1
- survivor count [2]: 6 of 6
- survivor count [3]: 3 of 6
